Reference: patent publication US20120003655A1, “IDENTIFICATION OF NEUROPROTECTIVE AGENTS USING PRO-INFLAMMATORY HUMAN GLIAL CELLS” (The Salk Institute for Biological Studies, priority 2008, published 2012)
No constants are given. Whether binding was seen depends on the method and setting. Some entries that bind do so weakly or less than the wild type.

The chains behind the UniProt entries cited, without tags or fusion partners. Where a name states a change or a piece, a line headed by the entry shows the natural chain unless it says otherwise.
UniProt Q8CFE3: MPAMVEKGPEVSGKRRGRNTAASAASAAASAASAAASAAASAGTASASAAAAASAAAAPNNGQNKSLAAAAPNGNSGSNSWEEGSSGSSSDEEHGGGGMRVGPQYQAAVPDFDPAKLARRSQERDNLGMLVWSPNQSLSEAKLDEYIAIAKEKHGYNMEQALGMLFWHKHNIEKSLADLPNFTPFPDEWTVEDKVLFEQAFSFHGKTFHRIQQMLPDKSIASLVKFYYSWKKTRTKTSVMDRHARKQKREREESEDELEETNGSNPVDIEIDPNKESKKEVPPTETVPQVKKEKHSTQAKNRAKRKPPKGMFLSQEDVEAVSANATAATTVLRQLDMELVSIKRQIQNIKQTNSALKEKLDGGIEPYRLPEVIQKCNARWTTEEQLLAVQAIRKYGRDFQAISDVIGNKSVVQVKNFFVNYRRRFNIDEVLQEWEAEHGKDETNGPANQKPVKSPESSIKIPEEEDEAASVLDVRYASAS
UniProt Q06219: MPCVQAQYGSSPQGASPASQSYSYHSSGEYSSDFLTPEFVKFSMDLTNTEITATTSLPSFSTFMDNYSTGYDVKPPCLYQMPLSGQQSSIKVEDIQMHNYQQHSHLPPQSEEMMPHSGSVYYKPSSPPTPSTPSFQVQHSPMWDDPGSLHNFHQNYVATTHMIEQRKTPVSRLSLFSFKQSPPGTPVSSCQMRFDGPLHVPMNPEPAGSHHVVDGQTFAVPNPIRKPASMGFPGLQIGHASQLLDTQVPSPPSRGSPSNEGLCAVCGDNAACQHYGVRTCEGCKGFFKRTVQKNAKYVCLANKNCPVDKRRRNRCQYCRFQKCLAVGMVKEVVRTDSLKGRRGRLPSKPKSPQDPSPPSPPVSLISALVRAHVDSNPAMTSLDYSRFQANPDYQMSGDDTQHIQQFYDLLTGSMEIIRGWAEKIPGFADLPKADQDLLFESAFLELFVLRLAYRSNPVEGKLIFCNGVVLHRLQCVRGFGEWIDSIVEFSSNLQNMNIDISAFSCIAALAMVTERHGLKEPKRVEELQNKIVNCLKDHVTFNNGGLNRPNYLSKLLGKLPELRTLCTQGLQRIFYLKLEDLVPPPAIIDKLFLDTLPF

What was measured:
[1] = biological target: 35S-labeled CoREST (mouse) (UniProt Q8CFE3); assay: GST-pull down, 35S-labeled CoREST on GST-Nurr1 (FIG. 24D left panel)
[2] = biological target: CoREST, as used in the GST-pull down of FIG. 24E (mouse) (UniProt Q8CFE3); assay: GST-pull down (FIG. 24E)

binding [1]	binding [2]	Substance
binds		GST-Nurr1 (wild-type full-length mouse Nurr1 in pGEX-6P) (from UniProt Q06219 1-598)
	binds	Nurr1 DNA-binding domain (Nurr1-DBD), as used in the GST-pull down of FIG. 24E (from UniProt Q06219 260-335)
